# Tested on: iPSC-CMs, iPSC-ECs and HUVECs phenotypes
# Assay: ToxPi 2.0 integration of POD values and physicochemical descriptors
# Design: species or system human
# Outline: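 Phenotypic readouts in iPSC-cardiomyocytes, iPSC-endothelial cells and HUVECs were normalised to 0.5% DMSO vehicle and fitted to a four-parameter logistic model. POD set at one SD cutoff of vehicle means, with 100 μM assigned when no response. PODs and physicochemical descriptors combined in ToxPi 2.0 scores.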
# [1] = iPSC-EC tube formation, 18 hr, scaled from POD
# [2] = iPSC-EC, 24 hr, scaled from POD
# [3] = HUVECs tube formation, 18 hr, scaled score from POD
# [4] = HUVECs, 24 hr, scaled score from POD
# [5] = iPSC-EC, 18 h, scaled POD score
# [6] = iPSC-EC, 24 h, scaled POD score
smiles,measurement,setting,value
Clc1cccc(-c2cccc(Cl)c2)c1 [PCB11],huvec.mtl.18hr ToxPi,"HUVECs, 18 hr, scaled from POD",0.00
same,huvec.tlps.18hr ToxPi,"HUVECs, 18 hr, scaled from POD",0.17
same,huvec.tta.18hr ToxPi,"HUVECs, 18 hr, scaled from POD",0.00
same,huvec.ttl.18hr ToxPi,"HUVECs, 18 hr, scaled from POD",0.00
same,huvec.cyto.24hr ToxPi,"HUVECs, 24 hr, scaled from POD",0.23
same,huvec.mito.24hr ToxPi,"HUVECs, 24 hr, scaled from POD",0.28
same,huvec.mitoint.24hr ToxPi,"HUVECs, 24 hr, scaled from POD",0.51
same,huvec.nma.24hr ToxPi,"HUVECs, 24 hr, scaled from POD",0.30
same,huvec.tc.24hrs ToxPi,"HUVECs, scaled from POD",0.23
same,cm.amp.avg.24hrs ToxPi,iPSC-CM,0.07
same,cm.amp.avg.90min ToxPi,iPSC-CM,0.64
same,cm.amp.cv.24hrs ToxPi,iPSC-CM,0.59
same,cm.amp.cv.90min ToxPi,iPSC-CM,0.37
same,cm.bpm.24hrs ToxPi,iPSC-CM,0.15
same,cm.bpm.90min ToxPi,iPSC-CM,0.15
same,cm.cam.24hrs ToxPi,iPSC-CM,0.14
same,cm.cam.90min ToxPi,iPSC-CM,0.69
same,cm.decay.rise.24hrs ToxPi,iPSC-CM,0.25
same,cm.decay.rise.90min ToxPi,iPSC-CM,0.68
same,cm.mii.24hrs ToxPi,iPSC-CM,0.62
same,cm.mii.90min ToxPi,iPSC-CM,0.78
same,cm.mito.24hrs ToxPi,iPSC-CM,0.24
same,cm.mito.90min ToxPi,iPSC-CM,0.79
same,cm.spacing.cv.24hrs ToxPi,iPSC-CM,0.37
same,cm.spacing.cv.90min ToxPi,iPSC-CM,0.07
same,cm.tc.24hrs ToxPi,iPSC-CM,0.24
same,cm.tc.90min ToxPi,iPSC-CM,0.73
same,endo.mtl.18hr ToxPi,[1],0.00
same,endo.tlps.18hr ToxPi,[1],0.00
same,endo.tta.18hr ToxPi,[1],0.00
same,endo.ttl.18hr ToxPi,[1],0.00
same,endo.cyto.24hr ToxPi,[2],0.00
same,endo.mito.24hr ToxPi,[2],0.00
same,endo.mitoint.24hr ToxPi,[2],0.00
same,endo.nma.24hr ToxPi,[2],0.00
same,endo.tc.24hrs ToxPi,[2],0.00
Clc1ccc(Cl)c(-c2cc(Cl)ccc2Cl)c1 [PCB52],cm.amp.avg.90min ToxPi,90min,0.56
same,cm.amp.cv.90min ToxPi,90min,0.17
same,cm.bpm.90min ToxPi,90min,0.32
same,cm.cam.90min ToxPi,90min,0.42
same,cm.decay.rise.90min ToxPi,90min,0.18
same,cm.mii.90min ToxPi,90min,0.84
same,cm.mito.90min ToxPi,90min,0.38
same,cm.spacing.cv.90min ToxPi,90min,0.16
same,cm.tc.90min ToxPi,90min,0.39
same,cm.amp.avg.24hrs ToxPi,24hrs,0.35
same,cm.amp.cv.24hrs ToxPi,24hrs,0.50
same,cm.bpm.24hrs ToxPi,24hrs,0.35
same,cm.cam.24hrs ToxPi,24hrs,0.35
same,cm.decay.rise.24hrs ToxPi,24hrs,0.29
same,cm.mii.24hrs ToxPi,24hrs,0.28
same,cm.mito.24hrs ToxPi,24hrs,0.56
same,cm.spacing.cv.24hrs ToxPi,24hrs,0.23
same,cm.tc.24hrs ToxPi,24hrs,0.58
same,huvec.mtl.18hr ToxPi,"HUVECs, 18 hr, scaled from POD",0.00
same,huvec.tlps.18hr ToxPi,"HUVECs, 18 hr, scaled from POD",0.00
same,huvec.tta.18hr ToxPi,"HUVECs, 18 hr, scaled from POD",0.00
same,huvec.ttl.18hr ToxPi,"HUVECs, 18 hr, scaled from POD",0.00
same,huvec.cyto.24hr ToxPi,"HUVECs, 24 hr, scaled from POD",0.52
same,huvec.mito.24hr ToxPi,"HUVECs, 24 hr, scaled from POD",0.61
same,huvec.mitoint.24hr ToxPi,"HUVECs, 24 hr, scaled from POD",0.56
same,huvec.nma.24hr ToxPi,"HUVECs, 24 hr, scaled from POD",0.38
same,huvec.tc.24hrs ToxPi,"HUVECs, scaled from POD",0.52
same,endo.mtl.18hr ToxPi,[1],0.0237
same,endo.tlps.18hr ToxPi,[1],0.00
same,endo.tta.18hr ToxPi,[1],0.00
same,endo.ttl.18hr ToxPi,[1],0.00
same,endo.cyto.24hr ToxPi,[2],0.00
same,endo.mito.24hr ToxPi,[2],0.00
same,endo.mitoint.24hr ToxPi,[2],0.00
same,endo.nma.24hr ToxPi,[2],0.00
same,endo.tc.24hrs ToxPi,[2],0.00
Clc1ccc(Cl)c(-c2c(Cl)ccc(Cl)c2Cl)c1 [PCB95],cm.amp.avg.90min ToxPi,90min,0.33
same,cm.amp.cv.90min ToxPi,90min,0.67
same,cm.bpm.90min ToxPi,90min,0.74
same,cm.cam.90min ToxPi,90min,0.41
same,cm.decay.rise.90min ToxPi,90min,0.16
same,cm.mii.90min ToxPi,90min,0.00
same,cm.mito.90min ToxPi,90min,0.38
same,cm.spacing.cv.90min ToxPi,90min,0.23
same,cm.tc.90min ToxPi,90min,0.39
same,cm.amp.avg.24hrs ToxPi,24hrs,0.00
same,cm.amp.cv.24hrs ToxPi,24hrs,0.21
same,cm.bpm.24hrs ToxPi,24hrs,1.00
same,cm.cam.24hrs ToxPi,24hrs,0.32
same,cm.decay.rise.24hrs ToxPi,24hrs,0.23
same,cm.mii.24hrs ToxPi,24hrs,0.40
same,cm.mito.24hrs ToxPi,24hrs,0.52
same,cm.spacing.cv.24hrs ToxPi,24hrs,0.19
same,cm.tc.24hrs ToxPi,24hrs,0.56
same,huvec.mtl.18hr ToxPi,[3],0.56
same,huvec.tlps.18hr ToxPi,[3],0.00
same,huvec.tta.18hr ToxPi,[3],0.00
same,huvec.ttl.18hr ToxPi,[3],0.00
same,huvec.cyto.24hr ToxPi,[4],0.95
same,huvec.mito.24hr ToxPi,[4],1.00
same,huvec.mitoint.24hr ToxPi,[4],0.52
same,huvec.nma.24hr ToxPi,[4],0.50
same,huvec.tc.24hrs ToxPi,"HUVECs, scaled score from POD",0.95
same,endo.mtl.18hr ToxPi,[5],0.0754
same,endo.tlps.18hr ToxPi,[5],0.10
same,endo.tta.18hr ToxPi,[5],0.0656
same,endo.ttl.18hr ToxPi,[5],0.054
same,endo.cyto.24hr ToxPi,[6],0.00
same,endo.mito.24hr ToxPi,[6],0.00
same,endo.mitoint.24hr ToxPi,[6],0.00
same,endo.nma.24hr ToxPi,[6],0.00
same,endo.tc.24hrs ToxPi,[6],0.00
Clc1ccc(-c2cc(Cl)c(Cl)c(Cl)c2)cc1Cl [PCB126],cm.amp.avg.90min ToxPi,90min,0.30
same,cm.amp.cv.90min ToxPi,90min,0.00
same,cm.bpm.90min ToxPi,90min,0.85
same,cm.cam.90min ToxPi,90min,0.00
same,cm.decay.rise.90min ToxPi,90min,1.00
same,cm.mii.90min ToxPi,90min,0.00
same,cm.mito.90min ToxPi,90min,0.00
same,cm.spacing.cv.90min ToxPi,90min,0.00
same,cm.tc.90min ToxPi,90min,0.00
same,cm.amp.avg.24hrs ToxPi,24hrs,0.39
same,cm.amp.cv.24hrs ToxPi,24hrs,0.06
same,cm.bpm.24hrs ToxPi,24hrs,0.68
same,cm.cam.24hrs ToxPi,24hrs,0.36
same,cm.decay.rise.24hrs ToxPi,24hrs,1.00
same,cm.mii.24hrs ToxPi,24hrs,0.00
same,cm.mito.24hrs ToxPi,24hrs,0.56
same,cm.spacing.cv.24hrs ToxPi,24hrs,0.34
same,cm.tc.24hrs ToxPi,24hrs,0.63
same,huvec.mtl.18hr ToxPi,[3],0.00
same,huvec.tlps.18hr ToxPi,[3],0.00
same,huvec.tta.18hr ToxPi,[3],0.00
same,huvec.ttl.18hr ToxPi,[3],0.00
same,huvec.cyto.24hr ToxPi,[4],0.30
same,huvec.mito.24hr ToxPi,[4],0.00
same,huvec.mitoint.24hr ToxPi,[4],0.00
same,huvec.nma.24hr ToxPi,[4],0.00
same,huvec.tc.24hrs ToxPi,"HUVECs, scaled score from POD",0.30
same,endo.mtl.18hr ToxPi,[5],0.13
same,endo.tlps.18hr ToxPi,[5],0.49
same,endo.tta.18hr ToxPi,[5],0.12
same,endo.ttl.18hr ToxPi,[5],0.09
same,endo.cyto.24hr ToxPi,[6],1.00
same,endo.mito.24hr ToxPi,[6],1.00
same,endo.mitoint.24hr ToxPi,[6],0.31
same,endo.nma.24hr ToxPi,[6],0.00
same,endo.tc.24hrs ToxPi,[6],1.00

# From paper PMC7377239, “Cardiovascular Effects of Polychlorinated Biphenyls and Their Major Metabolites” (Environmental Health Perspectives, 2020)
